Measured values reported in PMC9527062.
No constants are given. Whether binding was seen depends on the method and setting. Binding seen in cells or lysates may run through a third protein. Binding calls can cover weak binding; strength is not graded here. For some assays here: Where a sequence is shown, tags or fusion partners need not be part of it. Blank lines part the entries; values can stand above or below the molecule they belong to.

By UniProt entry, the sequences of proteins in these tests, tags left out. Where a name states a change or a piece, a line headed by the entry shows the natural chain unless it says otherwise. Residues count along the entry.
UniProt Q6IA17: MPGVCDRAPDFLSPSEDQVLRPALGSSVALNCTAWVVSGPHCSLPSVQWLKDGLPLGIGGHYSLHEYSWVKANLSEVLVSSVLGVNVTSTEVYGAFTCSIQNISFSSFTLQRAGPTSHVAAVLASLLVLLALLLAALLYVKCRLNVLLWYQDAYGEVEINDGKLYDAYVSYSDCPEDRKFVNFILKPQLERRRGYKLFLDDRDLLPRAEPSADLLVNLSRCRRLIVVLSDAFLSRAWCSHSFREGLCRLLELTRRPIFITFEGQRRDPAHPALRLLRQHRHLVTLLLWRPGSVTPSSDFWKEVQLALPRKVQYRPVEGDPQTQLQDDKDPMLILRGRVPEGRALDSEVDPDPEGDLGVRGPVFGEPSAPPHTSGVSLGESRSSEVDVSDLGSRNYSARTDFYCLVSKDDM
UniProt P25705, residues 44-553: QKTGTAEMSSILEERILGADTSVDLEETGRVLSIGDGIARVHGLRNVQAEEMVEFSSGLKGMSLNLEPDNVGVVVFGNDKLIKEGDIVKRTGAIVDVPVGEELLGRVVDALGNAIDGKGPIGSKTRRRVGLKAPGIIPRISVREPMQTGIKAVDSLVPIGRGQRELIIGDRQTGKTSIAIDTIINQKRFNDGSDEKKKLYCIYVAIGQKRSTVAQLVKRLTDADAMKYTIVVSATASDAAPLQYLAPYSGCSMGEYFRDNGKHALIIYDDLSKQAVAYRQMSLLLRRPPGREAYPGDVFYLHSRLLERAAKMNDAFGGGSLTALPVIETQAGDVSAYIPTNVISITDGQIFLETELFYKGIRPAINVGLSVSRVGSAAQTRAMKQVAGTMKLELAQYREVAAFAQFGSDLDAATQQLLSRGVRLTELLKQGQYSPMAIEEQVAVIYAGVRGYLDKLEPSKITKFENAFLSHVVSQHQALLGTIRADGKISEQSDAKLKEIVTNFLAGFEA

Columns and labels:
[1] = biological target: endogenous SIGIRR of HCT116 cells (predominantly SIGIRR^ΔE8) (human (endogenous in HCT116)) (UniProt Q6IA17); test: co-IP; endogenous SIGIRR immunoprecipitated from HCT116 and HT-29 cell lysates; Western blot for ATP5A1 and SIGIRR
[2] = biological target: M2 flag-tagged SIGIRR^ΔE8 (human); test: co-IP; HeLa cells cotransfected with the myc-tagged partner and M2 flag-tagged SIGIRR forms; lysates (0.5% Triton X-100, 50 mM Tris-HCl pH 7.4, 150 mM NaCl) immunoprecipitated with anti-FLAG antibody and protein A/G beads overnight at 4°C; Western blot

- binding [1]: binds
Molecule: alpha subunit of adenosine triphosphate (ATP) synthase (ATP5A1), endogenous (from UniProt P25705 44-553)

- binding [2]: binds
B1: myc-tagged ribophorin 1 (RPN1) (protein, UniProt P04843 24-607)
chain: ASSEAPPLINEDVKRTVDLSSHLAKVTAEVVLAHLGGGSTSRATSFLLALEPELEARLAHLGVQVKGEDEEENNLEVRETKIKGKSGRFFTVKLPVALDPGAKISVIVETVYTHVLHPYPTQITQSEKQFVVFEGNHYFYSPYPTKTQTMRVKLASRNVESYTKLGNPTRSEDLLDYGPFRDVPAYSQDTFKVHYENNSPFLTITSMTRVIEVSHWGNIAVEENVDLKHTGAVLKGPFSRYDYQRQPDSGISSIRSFKTILPAAAQDVYYRDEIGNVSTSHLLILDDSVEMEIRPRFPLFGGWKTHYIVGYNLPSYEYLYNLGDQYALKMRFVDHVFDEQVIDSLTVKIILPEGAKNIEIDSPYEISRAPDELHYTYLDTFGRPVIVAYKKNLVEQHIQDIVVHYTFNKVLMLQEPLLVVAAFYILFFTVIIYVRLDFSITKDPAAEARMKVACITEQVLTLVNKRIGLYRHFDETVNRYKQSRDISTLNSGKKSLETEHKALTSEIALLQSRLKTEGSDLCDRVSEMQKLDAQVKELVLKSAVEAERLVAGKLKKDTYIENEKLISGKRQELVTKIDHILDAL
